± gives the standard deviation of the averaged measurements. The list shows a part of the results.
Compound: Nc1nc2c(ncn2[C@@H]2O[C@H](COP(=O)(O)OP(=O)(O)OP(=O)(O)O)[C@@H](O)[C@H]2O)c(=O)[nH]1 [guanosine triphosphate]
Assay: NP40-soluble protein abundance relative to vehicle (solubility fold change) (ratio); higher = more soluble protein in presence of GTP
How it was run: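 Eight concentrations, 0.1 to 10 mM, were tested on Jurkat crude lysate for 10 min at room temperature and then 3 min at 37 °C, in three independent experiments. The lysate was solubilised with 0.8% NP40 and benzonase, ultracentrifuged, and the supernatant TMT-labelled for LC-MS/MS. Each value is the fold change against the detergent-processed vehicle in its own replicate, from vsn-normalised intensities.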

Chains of the proteins cited; added tags and fusions are not shown. Lines headed by an entry give the natural chain unless they say otherwise; changes in a name come on top.
UniProt Q9Y2I7: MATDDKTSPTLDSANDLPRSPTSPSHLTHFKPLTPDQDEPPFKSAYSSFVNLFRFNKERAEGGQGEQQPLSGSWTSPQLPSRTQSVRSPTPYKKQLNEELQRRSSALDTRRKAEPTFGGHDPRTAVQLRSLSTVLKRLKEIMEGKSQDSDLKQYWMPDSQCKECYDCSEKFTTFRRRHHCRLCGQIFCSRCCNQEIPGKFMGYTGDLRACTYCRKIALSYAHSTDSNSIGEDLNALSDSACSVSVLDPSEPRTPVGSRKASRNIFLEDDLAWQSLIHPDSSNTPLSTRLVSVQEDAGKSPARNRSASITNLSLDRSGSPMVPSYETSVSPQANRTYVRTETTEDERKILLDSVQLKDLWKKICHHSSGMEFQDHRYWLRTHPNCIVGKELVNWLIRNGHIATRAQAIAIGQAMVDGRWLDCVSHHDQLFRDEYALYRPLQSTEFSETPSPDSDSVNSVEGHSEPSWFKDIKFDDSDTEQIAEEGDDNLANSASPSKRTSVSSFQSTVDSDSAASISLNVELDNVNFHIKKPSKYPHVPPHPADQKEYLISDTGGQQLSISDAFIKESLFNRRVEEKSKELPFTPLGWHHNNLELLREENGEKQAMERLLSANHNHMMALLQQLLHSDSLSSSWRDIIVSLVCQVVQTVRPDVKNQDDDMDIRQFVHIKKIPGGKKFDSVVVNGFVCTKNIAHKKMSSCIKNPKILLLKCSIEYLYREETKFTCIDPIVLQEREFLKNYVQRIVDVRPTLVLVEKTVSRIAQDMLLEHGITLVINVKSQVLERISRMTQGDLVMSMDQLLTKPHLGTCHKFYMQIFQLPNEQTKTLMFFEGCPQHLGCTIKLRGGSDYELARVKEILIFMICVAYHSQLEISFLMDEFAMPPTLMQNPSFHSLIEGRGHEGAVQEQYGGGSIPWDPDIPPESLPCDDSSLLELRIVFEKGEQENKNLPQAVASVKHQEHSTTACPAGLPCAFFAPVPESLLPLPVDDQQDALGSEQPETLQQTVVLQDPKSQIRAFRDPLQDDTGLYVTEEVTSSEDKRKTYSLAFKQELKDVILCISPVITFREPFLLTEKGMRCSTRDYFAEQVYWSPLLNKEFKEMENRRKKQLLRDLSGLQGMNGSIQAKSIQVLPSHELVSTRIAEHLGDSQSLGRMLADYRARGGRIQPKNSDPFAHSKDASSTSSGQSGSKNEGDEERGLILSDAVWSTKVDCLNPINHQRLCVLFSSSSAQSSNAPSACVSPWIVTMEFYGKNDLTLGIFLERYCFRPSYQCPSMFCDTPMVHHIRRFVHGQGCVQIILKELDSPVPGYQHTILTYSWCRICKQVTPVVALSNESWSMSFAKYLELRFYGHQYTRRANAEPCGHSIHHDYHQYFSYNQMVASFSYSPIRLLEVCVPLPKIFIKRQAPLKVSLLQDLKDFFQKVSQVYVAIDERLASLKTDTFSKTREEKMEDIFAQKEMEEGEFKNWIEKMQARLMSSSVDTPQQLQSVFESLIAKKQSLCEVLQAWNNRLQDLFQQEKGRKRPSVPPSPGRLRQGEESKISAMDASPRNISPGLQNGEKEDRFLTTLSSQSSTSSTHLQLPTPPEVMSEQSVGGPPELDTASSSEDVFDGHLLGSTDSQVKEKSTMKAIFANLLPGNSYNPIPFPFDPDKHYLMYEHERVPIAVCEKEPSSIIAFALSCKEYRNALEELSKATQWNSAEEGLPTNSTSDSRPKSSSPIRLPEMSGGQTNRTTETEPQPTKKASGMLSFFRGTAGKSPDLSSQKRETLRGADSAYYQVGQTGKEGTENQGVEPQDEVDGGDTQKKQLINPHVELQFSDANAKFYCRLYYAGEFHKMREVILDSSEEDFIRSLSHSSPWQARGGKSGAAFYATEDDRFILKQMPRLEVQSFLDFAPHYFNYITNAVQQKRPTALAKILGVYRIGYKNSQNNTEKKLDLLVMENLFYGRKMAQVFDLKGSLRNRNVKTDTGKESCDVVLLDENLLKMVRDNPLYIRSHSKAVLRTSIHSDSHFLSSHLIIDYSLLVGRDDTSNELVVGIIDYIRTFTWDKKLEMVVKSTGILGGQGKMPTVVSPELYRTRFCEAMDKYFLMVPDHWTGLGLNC
UniProt Q9Y376: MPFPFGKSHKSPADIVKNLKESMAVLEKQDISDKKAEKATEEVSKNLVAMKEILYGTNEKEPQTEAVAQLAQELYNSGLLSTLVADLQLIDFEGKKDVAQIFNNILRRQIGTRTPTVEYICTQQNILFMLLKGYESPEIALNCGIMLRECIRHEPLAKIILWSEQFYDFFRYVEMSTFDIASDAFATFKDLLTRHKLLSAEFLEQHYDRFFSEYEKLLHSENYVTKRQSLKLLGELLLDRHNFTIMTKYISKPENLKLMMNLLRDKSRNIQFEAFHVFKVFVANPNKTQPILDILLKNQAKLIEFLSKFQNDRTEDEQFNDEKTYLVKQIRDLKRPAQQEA
UniProt Q9Y3I0: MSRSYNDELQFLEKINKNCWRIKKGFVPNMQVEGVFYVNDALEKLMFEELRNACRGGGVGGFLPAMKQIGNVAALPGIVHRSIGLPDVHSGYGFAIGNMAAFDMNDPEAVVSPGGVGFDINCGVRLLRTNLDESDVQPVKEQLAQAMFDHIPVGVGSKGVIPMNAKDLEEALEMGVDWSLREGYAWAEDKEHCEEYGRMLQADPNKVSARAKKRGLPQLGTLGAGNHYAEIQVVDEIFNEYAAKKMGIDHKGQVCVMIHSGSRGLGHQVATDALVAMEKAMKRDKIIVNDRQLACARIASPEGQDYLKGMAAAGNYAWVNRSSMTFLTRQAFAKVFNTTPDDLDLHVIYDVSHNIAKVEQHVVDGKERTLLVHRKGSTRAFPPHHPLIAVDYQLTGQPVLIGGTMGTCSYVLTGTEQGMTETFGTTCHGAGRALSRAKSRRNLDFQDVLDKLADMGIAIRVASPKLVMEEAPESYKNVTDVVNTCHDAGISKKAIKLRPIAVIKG
UniProt Q9Y2S6, whole entry: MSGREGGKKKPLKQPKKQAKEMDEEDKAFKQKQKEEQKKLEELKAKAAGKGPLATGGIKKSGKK
UniProt Q9Y2I8: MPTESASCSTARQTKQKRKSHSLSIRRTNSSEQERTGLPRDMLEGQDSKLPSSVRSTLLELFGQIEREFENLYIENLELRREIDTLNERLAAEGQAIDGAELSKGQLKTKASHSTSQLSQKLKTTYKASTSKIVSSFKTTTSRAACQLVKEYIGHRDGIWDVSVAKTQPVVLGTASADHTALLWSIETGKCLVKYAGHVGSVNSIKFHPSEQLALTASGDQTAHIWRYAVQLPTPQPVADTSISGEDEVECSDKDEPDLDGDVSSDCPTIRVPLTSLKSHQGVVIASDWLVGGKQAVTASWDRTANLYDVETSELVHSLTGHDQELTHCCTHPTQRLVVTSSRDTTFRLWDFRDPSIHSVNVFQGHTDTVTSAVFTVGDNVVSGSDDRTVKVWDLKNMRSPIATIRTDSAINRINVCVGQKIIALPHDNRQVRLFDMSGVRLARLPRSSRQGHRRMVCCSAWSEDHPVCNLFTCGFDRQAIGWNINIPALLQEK
UniProt Q03519, whole entry: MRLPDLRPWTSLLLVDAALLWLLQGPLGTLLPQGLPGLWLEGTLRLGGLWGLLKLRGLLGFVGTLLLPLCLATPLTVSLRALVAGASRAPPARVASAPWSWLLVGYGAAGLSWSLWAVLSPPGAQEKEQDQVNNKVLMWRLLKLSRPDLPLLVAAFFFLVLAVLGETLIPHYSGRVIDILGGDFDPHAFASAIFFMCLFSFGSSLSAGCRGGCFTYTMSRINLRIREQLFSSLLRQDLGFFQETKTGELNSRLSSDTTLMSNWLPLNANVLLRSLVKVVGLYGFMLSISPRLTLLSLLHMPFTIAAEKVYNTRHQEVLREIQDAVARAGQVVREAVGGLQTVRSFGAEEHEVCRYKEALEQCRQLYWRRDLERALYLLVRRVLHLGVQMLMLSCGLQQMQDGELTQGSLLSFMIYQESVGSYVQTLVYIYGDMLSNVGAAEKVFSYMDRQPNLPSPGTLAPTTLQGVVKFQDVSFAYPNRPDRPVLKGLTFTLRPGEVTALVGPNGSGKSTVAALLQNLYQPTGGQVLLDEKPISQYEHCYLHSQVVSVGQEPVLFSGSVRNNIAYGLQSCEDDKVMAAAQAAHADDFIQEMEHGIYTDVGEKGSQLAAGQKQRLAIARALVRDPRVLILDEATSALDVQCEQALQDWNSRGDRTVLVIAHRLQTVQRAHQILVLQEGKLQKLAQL
UniProt Q9Y224: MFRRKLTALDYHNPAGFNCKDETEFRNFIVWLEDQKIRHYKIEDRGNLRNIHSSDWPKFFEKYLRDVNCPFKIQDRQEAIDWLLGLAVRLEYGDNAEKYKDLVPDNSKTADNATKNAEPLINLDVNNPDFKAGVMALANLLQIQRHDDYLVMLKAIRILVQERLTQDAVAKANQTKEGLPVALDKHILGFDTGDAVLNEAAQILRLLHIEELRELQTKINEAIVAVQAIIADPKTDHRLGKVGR
UniProt Q9Y6D9: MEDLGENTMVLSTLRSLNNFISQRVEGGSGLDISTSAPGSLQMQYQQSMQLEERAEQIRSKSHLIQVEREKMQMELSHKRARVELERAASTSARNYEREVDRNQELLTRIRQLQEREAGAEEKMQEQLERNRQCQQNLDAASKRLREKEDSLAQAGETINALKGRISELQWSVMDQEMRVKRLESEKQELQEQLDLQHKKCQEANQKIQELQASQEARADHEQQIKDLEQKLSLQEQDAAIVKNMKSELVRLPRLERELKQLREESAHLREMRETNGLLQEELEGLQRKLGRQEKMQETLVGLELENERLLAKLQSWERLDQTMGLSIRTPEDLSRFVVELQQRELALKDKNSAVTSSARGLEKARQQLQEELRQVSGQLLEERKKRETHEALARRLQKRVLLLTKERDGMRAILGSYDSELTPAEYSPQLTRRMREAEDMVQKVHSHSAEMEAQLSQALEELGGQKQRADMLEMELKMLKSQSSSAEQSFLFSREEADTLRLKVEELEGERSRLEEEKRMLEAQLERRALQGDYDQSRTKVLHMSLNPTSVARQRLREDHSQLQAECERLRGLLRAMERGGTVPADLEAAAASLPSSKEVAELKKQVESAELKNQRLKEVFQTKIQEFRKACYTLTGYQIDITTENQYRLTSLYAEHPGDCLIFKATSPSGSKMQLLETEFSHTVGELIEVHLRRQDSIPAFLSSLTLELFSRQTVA
UniProt Q9Y6C9: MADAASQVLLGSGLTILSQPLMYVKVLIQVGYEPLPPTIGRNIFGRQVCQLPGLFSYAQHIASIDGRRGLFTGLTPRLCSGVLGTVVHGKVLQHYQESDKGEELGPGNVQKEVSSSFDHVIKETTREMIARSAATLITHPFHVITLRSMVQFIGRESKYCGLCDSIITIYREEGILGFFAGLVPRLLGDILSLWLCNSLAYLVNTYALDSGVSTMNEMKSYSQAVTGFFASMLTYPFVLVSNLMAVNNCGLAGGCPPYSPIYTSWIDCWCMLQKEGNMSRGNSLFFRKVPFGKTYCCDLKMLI
UniProt Q9Y303: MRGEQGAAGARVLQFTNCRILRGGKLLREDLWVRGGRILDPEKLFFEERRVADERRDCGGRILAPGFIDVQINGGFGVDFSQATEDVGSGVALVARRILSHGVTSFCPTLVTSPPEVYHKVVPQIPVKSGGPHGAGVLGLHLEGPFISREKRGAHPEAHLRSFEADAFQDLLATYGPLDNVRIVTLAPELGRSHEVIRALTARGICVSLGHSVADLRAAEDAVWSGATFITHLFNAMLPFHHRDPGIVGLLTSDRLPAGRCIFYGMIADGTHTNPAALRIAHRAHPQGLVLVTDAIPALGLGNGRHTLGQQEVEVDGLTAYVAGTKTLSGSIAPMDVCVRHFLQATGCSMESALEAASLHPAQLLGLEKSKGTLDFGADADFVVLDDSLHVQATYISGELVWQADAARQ
UniProt Q9Y5L4: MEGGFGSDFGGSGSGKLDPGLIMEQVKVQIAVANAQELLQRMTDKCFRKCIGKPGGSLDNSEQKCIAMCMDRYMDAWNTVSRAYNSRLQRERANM
UniProt Q9Y3I1: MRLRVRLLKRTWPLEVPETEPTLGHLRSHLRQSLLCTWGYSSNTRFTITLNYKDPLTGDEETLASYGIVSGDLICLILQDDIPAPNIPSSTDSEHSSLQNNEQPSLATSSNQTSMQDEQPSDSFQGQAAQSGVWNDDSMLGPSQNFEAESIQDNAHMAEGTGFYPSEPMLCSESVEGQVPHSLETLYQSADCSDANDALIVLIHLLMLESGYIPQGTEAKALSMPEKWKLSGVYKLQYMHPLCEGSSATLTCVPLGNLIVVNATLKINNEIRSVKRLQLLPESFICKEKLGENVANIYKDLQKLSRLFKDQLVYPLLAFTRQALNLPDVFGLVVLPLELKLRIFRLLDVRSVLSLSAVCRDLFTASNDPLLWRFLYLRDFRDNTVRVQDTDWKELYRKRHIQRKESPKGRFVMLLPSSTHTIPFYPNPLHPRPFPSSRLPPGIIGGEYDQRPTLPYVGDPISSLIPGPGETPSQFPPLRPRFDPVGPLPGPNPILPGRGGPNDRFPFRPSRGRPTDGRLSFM

| Target | NP40-soluble protein abundance (concentration: 0.1mM) | NP40-soluble protein abundance (concentration: 0.5mM) | NP40-soluble protein abundance (concentration: 1mM) | NP40-soluble protein abundance (concentration: 2mM) | NP40-soluble protein abundance (concentration: 4mM) | NP40-soluble protein abundance (concentration: 6mM) | NP40-soluble protein abundance (concentration: 8mM) | NP40-soluble protein abundance (concentration: 10mM) |
| --- | --- | --- | --- | --- | --- | --- | --- | --- |
| UniProt Q9Y5S9 and related entries | 0.914 ± 0.036 | 0.901 ± 0.056 | 0.955 ± 0.033 | 0.863 ± 0.082 | 0.853 ± 0.044 | 0.863 ± 0.08 | 0.871 ± 0.036 | 0.809 ± 0.048 |
| VPS4A (UniProt Q9UN37) | 0.977 ± 0.042 | 1.06 ± 0.017 | 1.08 ± 0.027 | 1.03 ± 0.025 | 1.02 ± 0.021 | 1.03 ± 0.037 | 1.05 ± 0.076 | 1.03 ± 0.087 |
| UniProt Q9Y2I7 | 1.03 ± 0.015 | 1.03 ± 0.033 | 0.995 ± 0.034 | 1 ± 0.043 | 0.989 ± 0.045 | 0.968 ± 0.058 | 0.967 ± 0.033 | 0.957 ± 0.019 |
| UniProt Q9Y376 and related entries | 0.992 ± 0.029 | 0.927 ± 0.026 | 0.899 ± 0.083 | 0.874 ± 0.015 | 0.872 ± 0.05 | 0.831 ± 0.035 | 0.814 ± 0.11 | 0.798 ± 0.091 |
| SRPRB (UniProt Q9Y5M8) | 0.975 ± 0.055 | 0.983 ± 0.066 | 0.987 ± 0.061 | 0.94 ± 0.068 | 0.951 ± 0.053 | 0.957 ± 0.07 | 0.979 ± 0.066 | 0.962 ± 0.077 |
| UniProt Q9Y3I0 | 0.964 ± 0.036 | 0.981 ± 0.038 | 0.955 ± 0.031 | 0.948 ± 0.036 | 0.971 ± 0.026 | 1 ± 0.034 | 0.998 ± 0.029 | 0.983 ± 0.035 |
| NOP16 (UniProt Q9Y3C1) | 0.9656 ± 0.0024 | 0.993 ± 0.14 | 1.01 ± 0.25 | 0.953 ± 0.19 | 0.987 ± 0.19 | 1.03 ± 0.25 | 0.972 ± 0.23 | 1.03 ± 0.075 |
| UniProt Q9Y2S6 | 0.961 ± 0.16 | 0.927 ± 0.13 | 0.966 ± 0.18 | 0.841 ± 0.23 | 0.783 ± 0.18 | 0.784 ± 0.23 | 0.875 ± 0.16 | 0.867 ± 0.14 |
| TELO2 (UniProt Q9Y4R8) | 1.02 ± 0.014 | 1.03 ± 0.085 | 0.999 ± 0.041 | 1.03 ± 0.073 | 0.981 ± 0.055 | 0.975 ± 0.11 | 0.941 ± 0.031 | 0.91 ± 0.048 |
| UTP18 (UniProt Q9Y5J1) | 1.06 ± 0.091 | 1.16 ± 0.12 | 1.13 ± 0.091 | 1.24 ± 0.091 | 1.37 ± 0.11 | 1.3 ± 0.044 | 1.37 ± 0.17 | 1.57 ± 0.17 |
| STUB1 (UniProt Q9UNE7) | 0.948 ± 0.056 | 0.8985 ± 0.0031 | 1.02 ± 0.1 | 1.03 ± 0.027 | 1.01 ± 0.078 | 1.01 ± 0.012 | 1.01 ± 0.049 | 1.03 ± 0.081 |
| UniProt Q9Y2I8 and related entries | 1.07 ± 0.088 | 1.06 ± 0.12 | 1.02 ± 0.055 | 1.08 ± 0.12 | 1.06 ± 0.14 | 1.03 ± 0.085 | 1.01 ± 0.091 | 0.999 ± 0.13 |
| X5CMH5 (UniProt Q03519) | 1.09 ± 0.036 | 1.08 ± 0.054 | 0.978 ± 0.028 | 1.01 ± 0.085 | 0.976 ± 0.063 | 0.951 ± 0.051 | 0.934 ± 0.015 | 0.918 ± 0.065 |
| PRPF19 (UniProt Q9UMS4) | 0.963 ± 0.028 | 1.01 ± 0.044 | 0.963 ± 0.03 | 1.01 ± 0.043 | 1.04 ± 0.067 | 1.08 ± 0.089 | 1.1 ± 0.11 | 1.12 ± 0.075 |
| OAS3 (UniProt Q9Y6K5) | 1.08 ± 0.08 | 1.08 ± 0.056 | 1 ± 0.035 | 1 ± 0.061 | 0.962 ± 0.085 | 0.975 ± 0.053 | 0.996 ± 0.074 | 0.933 ± 0.1 |
| UniProt Q9Y224 | 0.975 ± 0.16 | 0.858 ± 0.058 | 1.12 ± 0.17 | 1.1 ± 0.048 | 1.05 ± 0.1 | 1.08 ± 0.1 | 0.955 ± 0.14 | 1.2 ± 0.23 |
| MAD1L1 (UniProt Q9Y6D9) | 1.01 ± 0.065 | 0.983 ± 0.068 | 0.997 ± 0.098 | 0.963 ± 0.072 | 0.953 ± 0.082 | 0.948 ± 0.079 | 0.953 ± 0.056 | 0.941 ± 0.064 |
| MTCH2 (UniProt Q9Y6C9) | 1.16 ± 0.1 | 1.16 ± 0.11 | 1.01 ± 0.095 | 0.981 ± 0.091 | 0.924 ± 0.08 | 0.934 ± 0.11 | 0.949 ± 0.11 | 0.913 ± 0.087 |
| UniProt Q9Y2V7 and related entries | 1.048 ± 0.0094 | 1 ± 0.065 | 0.971 ± 0.051 | 1.02 ± 0.065 | 1.02 ± 0.05 | 1.01 ± 0.045 | 0.947 ± 0.059 | 0.949 ± 0.059 |
| NENF (UniProt Q9UMX5) | 0.904 ± 0.016 | 0.856 ± 0.031 | 0.946 ± 0.056 | 0.9231 ± 0.0089 | 0.932 ± 0.02 | 0.927 ± 0.063 | 0.941 ± 0.093 | 1.01 ± 0.042 |
| USP15 (UniProt Q9Y4E8) | 1 ± 0.045 | 0.975 ± 0.035 | 0.991 ± 0.046 | 0.967 ± 0.041 | 0.985 ± 0.035 | 0.961 ± 0.034 | 0.979 ± 0.055 | 0.936 ± 0.013 |
| COPS3 (UniProt Q9UNS2) | 0.991 ± 0.03 | 0.971 ± 0.016 | 0.983 ± 0.042 | 0.98 ± 0.052 | 0.99 ± 0.059 | 0.961 ± 0.059 | 0.958 ± 0.029 | 0.972 ± 0.051 |
| ARFGEF2 (UniProt Q9Y6D5) | 1.02 ± 0.015 | 1.04 ± 0.042 | 1.06 ± 0.025 | 1.09 ± 0.037 | 1.06 ± 0.061 | 1.06 ± 0.07 | 1.08 ± 0.091 | 1.06 ± 0.059 |
| UniProt Q9Y303 and related entries | 0.998 ± 0.018 | 0.978 ± 0.079 | 0.969 ± 0.047 | 0.959 ± 0.094 | 0.898 ± 0.087 | 0.92 ± 0.019 | 0.826 ± 0.051 | 0.846 ± 0.11 |
| IVNS1ABP (UniProt Q9Y6Y0) | 1.08 ± 0.048 | 1.15 ± 0.14 | 1.2 ± 0.2 | 1.26 ± 0.22 | 1.33 ± 0.24 | 1.33 ± 0.26 | 1.33 ± 0.28 | 1.27 ± 0.26 |
| TIMM13 (UniProt Q9Y5L4) | 0.993 ± 0.28 | 0.964 ± 0.23 | 1.01 ± 0.15 | 0.999 ± 0.16 | 1 ± 0.26 | 1.03 ± 0.082 | 1.07 ± 0.12 | 1.02 ± 0.26 |
| UniProt Q9UNS1 and related entries | 0.947 ± 0.028 | 0.965 ± 0.032 | 0.969 ± 0.037 | 0.9414 ± 0.0033 | 0.948 ± 0.0033 | 0.934 ± 0.02 | 0.952 ± 0.042 | 0.961 ± 0.028 |
| UniProt Q9Y3I1 and related entries | 1.04 ± 0.091 | 1.06 ± 0.2 | 0.951 ± 0.14 | 1.02 ± 0.23 | 1.01 ± 0.24 | 1.01 ± 0.21 | 0.921 ± 0.14 | 0.963 ± 0.15 |

Whole records from above. Values in the order: NP40-soluble protein abundance (concentration: 0.1mM) | NP40-soluble protein abundance (concentration: 0.5mM) | NP40-soluble protein abundance (concentration: 1mM) | NP40-soluble protein abundance (concentration: 2mM) | NP40-soluble protein abundance (concentration: 4mM) | NP40-soluble protein abundance (concentration: 6mM) | NP40-soluble protein abundance (concentration: 8mM) | NP40-soluble protein abundance (concentration: 10mM)
UniProt Q9Y2I8 and related entries reads 1.07 ± 0.088 | 1.06 ± 0.12 | 1.02 ± 0.055 | 1.08 ± 0.12 | 1.06 ± 0.14 | 1.03 ± 0.085 | 1.01 ± 0.091 | 0.999 ± 0.13
UniProt Q9Y2I7 reads 1.03 ± 0.015 | 1.03 ± 0.033 | 0.995 ± 0.034 | 1 ± 0.043 | 0.989 ± 0.045 | 0.968 ± 0.058 | 0.967 ± 0.033 | 0.957 ± 0.019

Reference: the supplement of paper PMC6411743
